This list was built around the results that the source calls inconclusive (neither active nor inactive); the mix of calls is not that of the screen. Activity calls are given as the source filed them. The call rests on the fitted dose curve; in most records, active means well fitted curve in either direction with a large enough effect (not every such curve was filed as active); inconclusive means small, poorly fitted or top-dose-only effect, or another doubt; inactive means flat fitted curve, though single readings scatter.
test: Stat Signaling Pathway (AID 446); conditions: ME-180 SIE beta-lactamase reporter, IL-6 stimulated, 5 h; at 7.69 µM (top of the series)
Protocol: NCGC Assay Overview: The IL-6/STAT signaling pathway was assayed in ME-180 cervical carcinoma cells by a beta-lactamase reporter gene controlled by a STAT Inducible Element (SIE). This reporter is induced by IL-6 at 40 pM AC50 and inhibited by the pan JAK inhibitor, 2-(1,1-Dimethylethyl)-9-fluoro-3,6-dihydro-7H-benz[h]-imidaz[4,5-f]isoquinolin-7-one, at approximately 10 nM AC50. Plated cells were incubated overnight and on the following day, stimulated with 40 pM IL-6 for 5 hrs. The assay was screened at the AC50 of IL-6 activation to identify both inhibitors and activators of IL-6/STAT signaling.
NCGC Assay Protocol Summary: Cells were trypsinized, washed in assay medium (AM, OPTI MEM with 0.5% fetal bovine serum, 0.1 mM nonessential amino acids, 1 mM sodium pyruvate, 10mM HEPES pH 7.3, 100U/ml penicillin, and 100 ug/ml streptomycin) and suspended at 6 x 10e5/ml in AM. Approximately […] cells in 5 uL/well was dispensed into 1536 well plates and the cells were incubated overnight at 37 C. 23 nL of compound were delivered by a pin tool and 1 uL of IL-6 (40 pM final concentration in AM) was added. After centrifugation at 1000 rpm for less than a minute, plates were incubated at 37C for 5 hrs. One uL of detector mix (LiveBLAzerTM, Invitrogen) was added, the plates incubated at room temperature for 2.5 hrs, and fluorescence intensity at 460 and 530 nm emission was measured at 405 nm excitation by an Envision (Perkin Elmer) or Safire II (Tecan). Data were normalized by GeneData to the controls for AC90 stimulation (300 pM IL-6) and to AC90 inhibition (125 nM Jak inhibitor, 40 pM IL-6 in AM).
On the % scale 0 is the no-effect control and ±100 the full control effect.

| Structure (SMILES) | activity, negative = inhibition |
| --- | --- |
| Cc1cn([C@H]2C[C@H](N=[N+]=[N-])[C@H](CO)O2)c(=O)[nH]c1=O | inactive: -1.74% |

same assay, conditions: ME-180 SIE beta-lactamase reporter, IL-6 stimulated, 5 h; at 7.69 µM (top of the series) unless noted

| Structure (SMILES) | activity, negative = inhibition |
| --- | --- |
| Cc1cccc(/C=C\c2ccccc2)n1 | inconclusive: -101% [inhibitor] [at 38 µM] |
| CSc1ncnc2c1ncn2CC(=O)[C@H]1CC[C@H]2[C@H]3CCC4=CC(=O)CC[C@@]4(C)[C@@H]3CC[C@@]12C | inconclusive: -59.6% [inhibitor] |
| COc1cccc(Cn2c(NCc3ccco3)nc3c2c(=O)n(C)c(=O)n3C)c1 | inactive: -24.4% [at 17.2 µM] |
| C=CCn1c(SCC(=O)c2ccc(NS(=O)(=O)c3ccccc3)cc2)nnc1-c1cccs1 | inconclusive: -31.8% [inhibitor] [at 17.2 µM] |
| N[C@@](CCc1ccccc1)(C(=O)O)c1ccccc1 | inconclusive: 2.38% [activator] |
| O=C(O)[C@H]1C[C@H](C(=O)O)N1 | inconclusive: -38.5% [inhibitor] [at 38 µM] |
| CSc1ccccc1NC(=O)c1c(Br)cnn1C | inactive: 1.88% [at 17.2 µM] |
| C=CCNC(=O)C(C#N)c1nc2ccccc2nc1N1CCCCCC1 (stereo not given) | inconclusive: -40.9% [inhibitor] [at 17.2 µM] |
| N#Cc1ccc(CN2CCCC3(CCN(C(=O)c4ccncc4)CC3)C2)cc1 | inactive: 1.22% |
| O=c1c(-c2ccc(F)cc2)nc2cnc(N3CCOCC3)nc2n1CCc1ccccc1 | inconclusive: 204% [activator] |
| Cc1onc(-c2c(F)cccc2Cl)c1C(=O)N[C@@H]1C(=O)N2[C@H]1SC(C)(C)[C@H]2C(=O)O | inactive: 5.59% |
| CCOC(=O)CSc1nc(N)c(C#N)c(-c2ccc(OC)cc2)c1C#N | inconclusive: -45.3% [inhibitor] [at 17.2 µM] |
| CN(C)c1ncc2nc(-c3ccccc3)c(=O)n(CCc3ccccc3)c2n1 | inconclusive: 239% [activator] |
| Cc1cc(C)c2c(SCc3ccc(Cl)cc3Cl)nc(N)nc2n1 | inconclusive: 33.5% [activator] |
| CCN(CC)[C@@H](C)C(=O)N1c2ccccc2Sc2ccccc21 | inconclusive: 46.9% [activator] [at 38 µM] |
| Cc1nnc2n(Cc3ccccc3)c(=O)c3c4c(sc3n12)COC(C(C)C)C4 (stereo not given) | inactive: 5.19% [at 17.2 µM] |
| CC(CCc1nc2ccccc2s1)(c1ccc(O)cc1)c1ccc(O)cc1 | inconclusive: -42.2% [inhibitor] |
| ON(CCc1ccncc1)Cc1ccccc1 | inconclusive: -0.0224% [inhibitor] |
| COc1cccc(-c2nc(NCc3ccco3)c3ccccc3n2)c1O | inactive: -8.59% [at 17.2 µM] |

Three structures already listed, arranged by formula weight, rising:

| Structure (SMILES) | activity, negative = inhibition |
| --- | --- |
| CSc1ccccc1NC(=O)c1c(Br)cnn1C | inactive: 1.88% [at 17.2 µM] |
| O=c1c(-c2ccc(F)cc2)nc2cnc(N3CCOCC3)nc2n1CCc1ccccc1 | inconclusive: 204% [activator] |
| Cc1onc(-c2c(F)cccc2Cl)c1C(=O)N[C@@H]1C(=O)N2[C@H]1SC(C)(C)[C@H]2C(=O)O | inactive: 5.59% |

Following part

| Structure (SMILES) | activity, negative = inhibition |
| --- | --- |
| COC(=O)CSc1nc(-c2cccs2)ccc1C#N | inactive: -2.18% [at 17.2 µM] |
| CCCCn1cnc2c(SC)ncnc21 | inactive: 8.32% |
| CN(C)c1ncc2nc(-c3cc(F)cc(F)c3)c(=O)n(Cc3cccs3)c2n1 | active: 190% [activator] |
| OC1(c2cccc(C(F)(F)F)c2)CCN(c2ncnc3c2[nH]c2ccccc23)CC1 | inconclusive: -51.4% [inhibitor] [at 17.2 µM] |
| COC(=O)c1cc(=O)n2c(-c3ccc(OC)cc3)csc2n1 | inactive: 5.85% [at 17.2 µM] |
| c1ccc([C@@H]2CN3CCSC3=N2)cc1 | inconclusive: 90.1% [activator] [at 38 µM] |
| C[C@@]12C(=O)OC(=O)[C@@]1(C)[C@H]1CC[C@@H]2O1 | inconclusive: -20.5% [inhibitor] [at 38 µM] |
| CCN(CC)CCCN1C(=O)C(=O)/C(=C(/O)c2ccc3c(c2)CC(C)O3)C1c1ccncc1 (stereo not given) | inconclusive: 4.91% [activator] [at 17.2 µM] |
| COc1ccccc1C(=O)NC(=Nc1nc2ccccc2o1)NC(=O)c1ccccc1OC | inconclusive: -65.9% [inhibitor] [at 17.2 µM] |
| Oc1ccc2ccccc2c1C=NC12CN3CCN(CN(C3)C1)C2 | inactive: -13.6% [at 17.2 µM] |
| CC(C)c1ccc2c(c1)CC[C@H]1[C@@](C)(CN)CCC[C@@]21C | inactive: 11.3% |
| Clc1ccccc1-c1cc(NCc2cccnc2)ncn1 | inactive: 6.36% |
| COC(=O)N1CCC2(CCCN(C(=O)Nc3cccc(F)c3)C2)CC1 | inactive: -5.21% |
| CC1(C)Cc2c(C#N)c(OCC(=O)c3ccc(Cl)cc3)nc(-c3ccoc3)c2CO1 | inconclusive: 33% [activator] [at 17.2 µM] |
| CSc1nc(N2CCCC2)c2c(c1C#N)CC(C)(C)OC2 | inconclusive: -35.6% [inhibitor] [at 17.2 µM] |
| O=C1CC(N(O)C2CC(=O)N(Cc3ccccc3)C2=O)C(=O)N1Cc1ccccc1 (stereo not given) | inconclusive: -40% [inhibitor] [at 17.2 µM] |
| CCCCc1cc(=O)oc2c(CN(C)C)c(O)c(Cl)cc12 | inactive: 14.1% [at 17.2 µM] |
| CCNc1ncc2nc(-c3cc(F)cc(F)c3)c(=O)n(CCC#N)c2n1 | inconclusive: 51.3% [activator] |
| COc1cccc2c1C(=N)c1c(O)c3c(c(O)c1C2=O)C[C@](O)(C(C)=O)C[C@@H]3O[C@H]1C[C@H](N)[C@@H](O)[C@H](C)O1 | inconclusive: 66.8% [activator] |

same assay, conditions: ME-180 (cervical carcinoma) SIE beta-lactamase reporter, IL-6 stimulated, 5 h; at 38 µM (top of the series)

| Structure (SMILES) | activity, negative = inhibition |
| --- | --- |
| Cc1cn([C@H]2C[C@H](N=[N+]=[N-])[C@H](CO)O2)c(=O)[nH]c1=O | inactive: 22.1% |

— PubChem BioAssay (NCATS)
